The subject of the data set is male Long-Evans rats. As to the kind of experiment: Focal cerebral ischemia (right distal MCA cauterization with bilateral temporary CCA occlusion). It is filed as in vivo. As to conditions: for PaCO2 / PaO2 / pH: arterial blood 30 min after MCA occlusion; for MABP Ischemia: average during occlusion; for MABP Steady State: just prior to occlusion; for relative blood flow in the right parietal cortex during occlusion, of the baseline: laser Doppler.

Consider `O=C1NCCc2c(OCCCCN3CCCCC3)cccc21` [DPQ, 3,4-dihydro-5-[4-(1-piperidinyl)-butoxy]-1(2H)-isoquinolinone], for which, for the setting “5 mg/kg-treated group”, the PaCO2 is listed as 38.0 mm Hg, the PaO2 is 126 ± 20 mm Hg, the pH is recorded as 7.36 and the “MABP Ischemia” value is recorded as 91 ± 12 mm Hg. Besides, for the setting “5 mg/kg-treated group”, the “MABP Steady State” value is 78 ± 5 mm Hg and the “relative blood flow in the right parietal cortex during occlusion, of the baseline” value (“relative blood flow” for short) is 18.7±7.4%. Besides, for the setting “10 mg/kg-treated group”, the PaCO2 is 39.3 mm Hg, the PaO2 was found to be 125 ± 16 mm Hg, the pH worked out at 7.34 and the “MABP Ischemia” value came out at 90 ± 14 mm Hg. Moreover, for the setting “10 mg/kg-treated group”, the “MABP Steady State” value was found to be 80 ± 9 mm Hg and the “relative blood flow” value is 21.4±7.7%. Also, for the setting “20 mg/kg-treated group”, the PaCO2 was found to be 41.3 mm Hg, the PaO2 was determined as 122 ± 14 mm Hg, the pH is on record as 7.35 and the “MABP Ischemia” value is 91 ± 12 mm Hg. Also, the “MABP Steady State” value (20 mg/kg-treated group) came to 79 ± 10 mm Hg. Where the note is “40 mg/kg-treated group”, the PaCO2 is 39.5 mm Hg, the PaO2 is listed as 137 ± 17 mm Hg, the pH came to 7.33 and the “MABP Ischemia” value was found to be 88 ± 12 mm Hg. Further, for the setting “40 mg/kg-treated group”, the “MABP Steady State” value stood at 78 ± 4 mm Hg and the “relative blood flow” value is 19.3±11.2%.

For the origin of these results see US6716828B1, “Compounds, methods and pharmaceutical compositions for treating cellular damage, such as neural or cardiovascular tissue damage” (Guilford Pharmaceuticals, Inc., priority 1999, dated 2004).
